{"sequences": {"note": "The chains behind the UniProt entries cited, without tags or fusion partners. Where a name states a change or a piece, a line headed by the entry shows the natural chain unless it says otherwise.", "UniProt P46109": "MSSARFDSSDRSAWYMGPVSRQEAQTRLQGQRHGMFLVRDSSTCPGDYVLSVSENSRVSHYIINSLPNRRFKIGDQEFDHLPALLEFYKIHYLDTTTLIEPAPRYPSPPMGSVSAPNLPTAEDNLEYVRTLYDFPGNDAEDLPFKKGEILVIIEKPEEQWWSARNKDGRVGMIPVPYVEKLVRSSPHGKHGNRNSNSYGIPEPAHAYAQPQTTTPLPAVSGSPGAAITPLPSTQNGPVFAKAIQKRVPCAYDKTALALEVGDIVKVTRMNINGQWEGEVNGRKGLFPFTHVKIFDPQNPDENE", "UniProt P50851": "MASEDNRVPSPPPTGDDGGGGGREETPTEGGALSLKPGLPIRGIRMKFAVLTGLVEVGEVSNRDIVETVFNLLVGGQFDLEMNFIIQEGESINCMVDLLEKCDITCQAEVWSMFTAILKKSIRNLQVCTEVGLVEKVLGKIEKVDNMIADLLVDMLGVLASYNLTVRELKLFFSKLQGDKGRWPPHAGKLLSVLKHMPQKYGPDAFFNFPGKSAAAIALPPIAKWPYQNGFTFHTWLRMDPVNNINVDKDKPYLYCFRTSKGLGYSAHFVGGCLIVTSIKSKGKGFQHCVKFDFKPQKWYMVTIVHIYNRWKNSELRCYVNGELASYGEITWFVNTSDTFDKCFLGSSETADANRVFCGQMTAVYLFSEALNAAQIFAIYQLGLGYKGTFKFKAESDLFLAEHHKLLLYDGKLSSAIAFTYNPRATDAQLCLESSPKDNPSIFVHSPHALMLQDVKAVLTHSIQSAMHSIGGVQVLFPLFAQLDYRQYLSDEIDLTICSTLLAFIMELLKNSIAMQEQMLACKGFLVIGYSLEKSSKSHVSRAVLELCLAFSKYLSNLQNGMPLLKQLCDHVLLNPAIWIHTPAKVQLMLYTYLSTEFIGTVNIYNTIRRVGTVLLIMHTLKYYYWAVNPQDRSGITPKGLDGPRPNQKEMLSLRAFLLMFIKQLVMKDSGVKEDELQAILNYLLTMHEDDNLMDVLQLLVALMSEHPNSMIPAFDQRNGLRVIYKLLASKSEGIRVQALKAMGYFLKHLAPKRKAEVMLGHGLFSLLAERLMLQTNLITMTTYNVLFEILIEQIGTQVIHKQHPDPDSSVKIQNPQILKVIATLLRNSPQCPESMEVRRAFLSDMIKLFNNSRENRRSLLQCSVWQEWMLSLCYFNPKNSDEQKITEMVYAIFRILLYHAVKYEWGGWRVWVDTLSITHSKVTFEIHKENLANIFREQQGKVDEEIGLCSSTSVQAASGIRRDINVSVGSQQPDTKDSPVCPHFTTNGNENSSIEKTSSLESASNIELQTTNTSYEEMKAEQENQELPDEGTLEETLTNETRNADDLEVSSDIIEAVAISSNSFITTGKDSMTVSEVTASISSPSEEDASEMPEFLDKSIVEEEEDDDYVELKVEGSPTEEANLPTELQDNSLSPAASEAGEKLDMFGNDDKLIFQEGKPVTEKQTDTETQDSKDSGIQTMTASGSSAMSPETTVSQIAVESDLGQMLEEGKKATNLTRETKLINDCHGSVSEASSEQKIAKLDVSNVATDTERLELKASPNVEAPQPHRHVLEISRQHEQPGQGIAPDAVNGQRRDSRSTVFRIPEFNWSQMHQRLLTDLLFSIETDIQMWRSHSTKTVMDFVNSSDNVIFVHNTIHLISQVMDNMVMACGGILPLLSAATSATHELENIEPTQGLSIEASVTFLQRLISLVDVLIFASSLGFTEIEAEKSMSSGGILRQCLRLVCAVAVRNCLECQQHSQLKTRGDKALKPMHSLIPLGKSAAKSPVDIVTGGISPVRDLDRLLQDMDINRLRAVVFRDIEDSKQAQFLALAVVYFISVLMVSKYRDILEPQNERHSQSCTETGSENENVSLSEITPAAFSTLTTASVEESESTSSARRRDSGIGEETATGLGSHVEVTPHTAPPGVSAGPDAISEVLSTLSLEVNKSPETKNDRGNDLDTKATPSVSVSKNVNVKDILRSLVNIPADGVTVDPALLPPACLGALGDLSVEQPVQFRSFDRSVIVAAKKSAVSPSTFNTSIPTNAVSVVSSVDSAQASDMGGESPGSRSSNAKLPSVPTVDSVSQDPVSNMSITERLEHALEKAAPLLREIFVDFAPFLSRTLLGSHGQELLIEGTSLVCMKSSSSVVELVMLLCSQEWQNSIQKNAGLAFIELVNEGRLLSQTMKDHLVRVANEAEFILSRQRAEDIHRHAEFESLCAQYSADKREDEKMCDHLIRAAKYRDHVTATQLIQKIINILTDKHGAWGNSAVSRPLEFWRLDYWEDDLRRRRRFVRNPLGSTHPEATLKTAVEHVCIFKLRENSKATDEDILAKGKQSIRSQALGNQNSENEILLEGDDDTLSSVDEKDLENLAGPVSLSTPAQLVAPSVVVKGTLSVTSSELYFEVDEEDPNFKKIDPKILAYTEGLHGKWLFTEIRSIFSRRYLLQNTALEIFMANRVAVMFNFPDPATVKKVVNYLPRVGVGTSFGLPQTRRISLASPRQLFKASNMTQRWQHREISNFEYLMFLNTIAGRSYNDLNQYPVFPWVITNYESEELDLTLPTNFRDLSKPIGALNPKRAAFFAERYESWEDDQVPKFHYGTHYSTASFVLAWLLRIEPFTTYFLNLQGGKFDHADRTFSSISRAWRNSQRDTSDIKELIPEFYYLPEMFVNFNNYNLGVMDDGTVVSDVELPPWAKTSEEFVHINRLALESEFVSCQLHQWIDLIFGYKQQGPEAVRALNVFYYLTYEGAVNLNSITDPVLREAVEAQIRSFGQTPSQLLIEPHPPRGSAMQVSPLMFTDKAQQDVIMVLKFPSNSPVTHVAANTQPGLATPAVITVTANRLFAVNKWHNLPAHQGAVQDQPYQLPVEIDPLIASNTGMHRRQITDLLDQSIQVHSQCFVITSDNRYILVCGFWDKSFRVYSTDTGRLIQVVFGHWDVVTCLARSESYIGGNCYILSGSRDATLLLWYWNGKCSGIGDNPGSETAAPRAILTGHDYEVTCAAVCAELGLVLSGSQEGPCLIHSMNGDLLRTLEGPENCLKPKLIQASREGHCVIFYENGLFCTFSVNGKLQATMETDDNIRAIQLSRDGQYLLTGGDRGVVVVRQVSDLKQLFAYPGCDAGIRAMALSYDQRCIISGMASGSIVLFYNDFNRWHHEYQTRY", "UniProt P51610": "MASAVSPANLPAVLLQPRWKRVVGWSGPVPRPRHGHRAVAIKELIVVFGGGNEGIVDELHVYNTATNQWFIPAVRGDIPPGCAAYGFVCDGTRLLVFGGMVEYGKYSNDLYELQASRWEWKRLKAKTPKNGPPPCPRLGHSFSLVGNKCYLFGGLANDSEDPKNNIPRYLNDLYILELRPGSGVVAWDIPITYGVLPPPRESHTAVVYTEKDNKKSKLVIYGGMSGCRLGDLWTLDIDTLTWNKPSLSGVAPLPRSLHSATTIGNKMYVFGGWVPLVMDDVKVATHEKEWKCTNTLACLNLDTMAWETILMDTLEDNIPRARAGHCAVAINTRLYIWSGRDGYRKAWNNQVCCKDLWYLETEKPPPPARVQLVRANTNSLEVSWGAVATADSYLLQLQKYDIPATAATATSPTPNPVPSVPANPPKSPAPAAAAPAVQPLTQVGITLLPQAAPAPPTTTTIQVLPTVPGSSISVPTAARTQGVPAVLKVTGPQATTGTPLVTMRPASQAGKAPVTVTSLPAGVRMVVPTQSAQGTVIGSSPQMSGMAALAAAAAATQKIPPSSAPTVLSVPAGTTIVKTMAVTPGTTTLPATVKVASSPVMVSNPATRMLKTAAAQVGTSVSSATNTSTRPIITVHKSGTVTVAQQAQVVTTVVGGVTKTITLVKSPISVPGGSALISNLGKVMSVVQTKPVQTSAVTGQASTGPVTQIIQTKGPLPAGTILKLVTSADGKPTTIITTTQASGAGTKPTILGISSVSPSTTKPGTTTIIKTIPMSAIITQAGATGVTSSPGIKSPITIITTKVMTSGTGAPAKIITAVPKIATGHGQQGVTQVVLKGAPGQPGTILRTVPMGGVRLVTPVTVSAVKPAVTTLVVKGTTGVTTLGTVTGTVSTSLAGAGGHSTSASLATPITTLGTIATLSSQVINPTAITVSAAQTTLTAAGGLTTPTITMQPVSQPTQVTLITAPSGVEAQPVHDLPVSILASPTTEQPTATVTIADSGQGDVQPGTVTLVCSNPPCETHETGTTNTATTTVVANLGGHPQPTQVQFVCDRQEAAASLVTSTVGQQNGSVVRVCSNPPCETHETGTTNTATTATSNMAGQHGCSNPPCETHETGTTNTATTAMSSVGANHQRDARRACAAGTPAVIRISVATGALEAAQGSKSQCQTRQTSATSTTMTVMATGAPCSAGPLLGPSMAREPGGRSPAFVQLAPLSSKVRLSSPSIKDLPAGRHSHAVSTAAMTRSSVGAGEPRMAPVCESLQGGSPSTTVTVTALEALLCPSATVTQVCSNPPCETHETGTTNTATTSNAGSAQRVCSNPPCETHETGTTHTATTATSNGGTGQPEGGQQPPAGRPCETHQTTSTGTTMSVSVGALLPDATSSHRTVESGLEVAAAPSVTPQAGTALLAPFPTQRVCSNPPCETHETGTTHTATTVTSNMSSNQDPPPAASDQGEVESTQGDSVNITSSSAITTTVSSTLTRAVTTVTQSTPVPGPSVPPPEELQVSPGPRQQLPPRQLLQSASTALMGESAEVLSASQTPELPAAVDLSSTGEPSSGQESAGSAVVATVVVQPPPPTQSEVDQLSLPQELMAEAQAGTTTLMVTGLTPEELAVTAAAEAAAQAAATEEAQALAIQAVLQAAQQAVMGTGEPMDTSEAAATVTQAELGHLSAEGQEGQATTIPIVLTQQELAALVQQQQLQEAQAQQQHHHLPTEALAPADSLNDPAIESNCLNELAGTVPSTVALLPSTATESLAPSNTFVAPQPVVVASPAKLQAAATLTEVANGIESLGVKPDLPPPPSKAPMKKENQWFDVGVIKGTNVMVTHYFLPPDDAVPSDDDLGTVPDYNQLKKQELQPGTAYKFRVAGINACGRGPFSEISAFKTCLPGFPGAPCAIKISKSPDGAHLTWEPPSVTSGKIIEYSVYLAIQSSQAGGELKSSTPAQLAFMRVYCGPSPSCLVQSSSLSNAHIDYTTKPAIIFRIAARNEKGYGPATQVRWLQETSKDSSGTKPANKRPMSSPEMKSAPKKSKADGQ", "UniProt P49459, whole entry, looked up": "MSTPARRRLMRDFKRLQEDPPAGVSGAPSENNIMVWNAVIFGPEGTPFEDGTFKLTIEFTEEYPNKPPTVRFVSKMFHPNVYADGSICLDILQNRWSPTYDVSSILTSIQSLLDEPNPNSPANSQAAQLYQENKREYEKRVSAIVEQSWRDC", "UniProt P49840": "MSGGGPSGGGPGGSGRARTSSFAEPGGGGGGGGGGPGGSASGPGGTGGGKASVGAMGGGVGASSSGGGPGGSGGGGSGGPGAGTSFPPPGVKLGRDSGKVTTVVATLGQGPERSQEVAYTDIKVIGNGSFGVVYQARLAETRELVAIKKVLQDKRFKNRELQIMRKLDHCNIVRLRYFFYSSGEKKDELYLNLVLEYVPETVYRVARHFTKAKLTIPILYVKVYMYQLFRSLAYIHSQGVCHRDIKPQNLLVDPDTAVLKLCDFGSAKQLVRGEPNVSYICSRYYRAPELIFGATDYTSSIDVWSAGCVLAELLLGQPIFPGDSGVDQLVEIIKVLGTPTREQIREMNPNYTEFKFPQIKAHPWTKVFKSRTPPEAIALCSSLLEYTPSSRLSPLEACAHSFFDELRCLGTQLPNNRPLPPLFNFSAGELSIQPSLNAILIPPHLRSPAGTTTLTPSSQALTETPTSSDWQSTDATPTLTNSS", "UniProt P51003": "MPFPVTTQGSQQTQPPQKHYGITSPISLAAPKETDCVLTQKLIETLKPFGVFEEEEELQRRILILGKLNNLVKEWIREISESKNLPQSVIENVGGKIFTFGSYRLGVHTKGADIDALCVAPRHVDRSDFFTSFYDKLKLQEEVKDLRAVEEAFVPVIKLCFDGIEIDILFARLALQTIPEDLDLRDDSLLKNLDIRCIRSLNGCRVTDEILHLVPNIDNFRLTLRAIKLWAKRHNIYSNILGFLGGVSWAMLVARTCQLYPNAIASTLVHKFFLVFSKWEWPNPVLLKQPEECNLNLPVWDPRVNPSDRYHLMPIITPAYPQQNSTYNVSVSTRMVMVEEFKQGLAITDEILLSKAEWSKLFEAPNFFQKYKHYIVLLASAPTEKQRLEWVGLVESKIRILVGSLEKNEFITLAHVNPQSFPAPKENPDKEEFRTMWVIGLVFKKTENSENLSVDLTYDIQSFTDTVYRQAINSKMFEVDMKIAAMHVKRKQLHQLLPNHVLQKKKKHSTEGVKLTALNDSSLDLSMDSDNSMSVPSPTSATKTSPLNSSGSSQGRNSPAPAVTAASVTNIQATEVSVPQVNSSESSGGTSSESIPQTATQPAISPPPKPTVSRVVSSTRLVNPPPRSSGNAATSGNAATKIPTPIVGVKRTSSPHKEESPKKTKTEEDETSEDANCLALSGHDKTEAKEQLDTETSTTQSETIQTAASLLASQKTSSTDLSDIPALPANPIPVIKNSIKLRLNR"}, "source": "the supplement of paper PMC11006884", "note": "The list shows a part of the results, in another mix than the full data."}
{"compound": "COC(=O)C#Cc1ccccc1 [methyl 3-phenylpropiolate]", "assay": "log2 ratio of iodoacetamide-alkyne labeling of the cysteine site, DMSO over compound (competition); higher = stronger covalent engagement of the cysteine by the compound, active = 1 or more", "conditions": "500 µM; treatment time 1 h; system: HEK293T cell lysate", "summary_of_the_method": "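For each cysteine, the log2 competition ratio is mean control-channel reporter intensity over mean compound-channel reporter intensity. HEK293T lysate (2 mg/mL) was exposed to vehicle or electrophile (500 µM, 1 h, ambient temperature), labelled with iodoacetamide alkyne (1 h), clicked to sCIP-TMT reagents, digested overnight with trypsin at 37 °C, streptavidin-enriched and analysed by Orbitrap Eclipse LC-MS/MS with FAIMS and FragPipe. Cysteines quantified in only one of three replicates, each with duplicate channels, were excluded.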"}
{"target": "MKI67 C2706 (UniProt P46013)", "log2 ratio of iodoacetamide-alkyne labeling": "inactive: 0.454"}
{"target": "NASP C84 (UniProt P49321)", "log2 ratio of iodoacetamide-alkyne labeling": "inactive: 0.0785"}
{"target": "CRKL C249 (UniProt P46109)", "log2 ratio of iodoacetamide-alkyne labeling": "active: 1.61"}
{"target": "LRBA C1228 (UniProt P50851)", "log2 ratio of iodoacetamide-alkyne labeling": "inactive: 0.296"}
{"target": "MKI67 C1285 (UniProt P46013)", "log2 ratio of iodoacetamide-alkyne labeling": "inactive: 0.653"}
{"target": "FASN C1459 (UniProt P49327)", "log2 ratio of iodoacetamide-alkyne labeling": "inactive: 0.294"}
{"target": "ALDH7A1 C478 (UniProt P49419)", "log2 ratio of iodoacetamide-alkyne labeling": "inactive: 0.442"}
{"target": "HCFC1 C1886 (UniProt P51610)", "log2 ratio of iodoacetamide-alkyne labeling": "inactive: 0.415"}
{"target": "PSMD8 C112 (UniProt P48556)", "log2 ratio of iodoacetamide-alkyne labeling": "inactive: 0.231"}
{"target": "UniProt P49459_C152", "log2 ratio of iodoacetamide-alkyne labeling": "inactive: 0.0318"}
{"target": "MAP1B C2361 (UniProt P46821)", "log2 ratio of iodoacetamide-alkyne labeling": "inactive: 0.49"}
{"target": "LIMS1 C303 (UniProt P48059)", "log2 ratio of iodoacetamide-alkyne labeling": "inactive: 0.548"}
{"target": "RANBP2 C82 (UniProt P49792)", "log2 ratio of iodoacetamide-alkyne labeling": "inactive: 0.564"}
{"target": "MSH2 C333 (UniProt P43246)", "log2 ratio of iodoacetamide-alkyne labeling": "active: 1.16"}
{"target": "MCM2 C315 (UniProt P49736)", "log2 ratio of iodoacetamide-alkyne labeling": "inactive: 0.337"}
{"target": "IDH3A C222 (UniProt P50213)", "log2 ratio of iodoacetamide-alkyne labeling": "inactive: 0.38"}
{"target": "HCFC1 C1953 (UniProt P51610)", "log2 ratio of iodoacetamide-alkyne labeling": "inactive: 0.123"}
{"target": "HCFC1 C1895 (UniProt P51610)", "log2 ratio of iodoacetamide-alkyne labeling": "active: 1.09"}
{"target": "TSC2 C414 (UniProt P49815)", "log2 ratio of iodoacetamide-alkyne labeling": "inactive: 0.0259"}
{"target": "UniProt P49840_C380", "log2 ratio of iodoacetamide-alkyne labeling": "inactive: 0.137"}
{"target": "PAPOLA C293 (UniProt P51003)", "log2 ratio of iodoacetamide-alkyne labeling": "inactive: 0.454"}
{"target": "FASN C1548 (UniProt P49327)", "log2 ratio of iodoacetamide-alkyne labeling": "inactive: -0.00359"}
